Results on 25 compounds are retold here after PubChem BioAssay AID248 (DTP/NCI, 2004).

The list shows only some results of the screen, not a fair sample: it gathers tests that were run many times, whatever their T/C, doses with no T/C, and many T/C values between a quarter and a half above the control. Further doses and runs are listed elsewhere. T/C: endpoint of the treated group in % of that of the vehicle group. Some entries give survivors of the animals treated and no T/C: the source holds a T/C of zero for them, seemingly a mark for toxic or unscored doses. Some doses without a T/C left all or most animals alive at the check, yet need not have been tolerated: the source hardly ever lists a survival T/C far under the control, and the zero likely stands for such cases as well. Survivors were counted at the toxicity check, usually on the fifth day, unless a day is given; later deaths do not show. Schedule codes are those of the source, taken here to give the interval after Q, in days (D) or hours (H), and the number of doses after X. Some entries were tested several times; the results are listed from low to high. Where survival is the endpoint, the PubChem record calls one and a half times the control and up active, and a quarter to a half above the control has no call in these data; cut-offs in other NCI protocols can differ. Some T/C values carry the count of animals alive at the toxicity check (mostly the fifth day); where none is given, no animal had died by that day.

The test concerns L1210 leukemia ip in BDF1 mice, survival T/C. The experiment in a line: NCI In Vivo Anticancer Drug Screen. Data for tumor model L1210 Leukemia (intraperitoneal) in B6D2F1 (BDF1) mice. The settings on record: higher T/C = longer survival.
Setting [1] is: T/C endpoint: mean survival time, dose: 100.0 mg/kg/injection, schedule: Q01DX001 (ip), vehicle: carboxymethylcellulose (CMC).
Where [2] appears, read: T/C endpoint: mean survival time, dose: 200.0 mg/kg/injection, schedule: Q01DX001 (ip), vehicle: carboxymethylcellulose (CMC).
Setting [3] is: T/C endpoint: mean survival time, dose: 400.0 mg/kg/injection, schedule: Q01DX001 (ip), vehicle: carboxymethylcellulose (CMC).
The mark [4] stands for this setting: T/C endpoint: mean survival time, dose: 400.0 mg/kg/injection, schedule: Q04DX002 (ip), vehicle: Klucel (hydroxypropylcellulose) (HPC).
[5] abbreviates: T/C endpoint: mean survival time, dose: 200.0 mg/kg/injection, schedule: Q01DX009 (ip), vehicle: Klucel (hydroxypropylcellulose) (HPC).
Setting [6] is: T/C endpoint: mean survival time, dose: 400.0 mg/kg/injection, schedule: Q01DX009 (ip), vehicle: Klucel (hydroxypropylcellulose) (HPC).
The mark [7] stands for this setting: T/C endpoint: mean survival time, dose: 100.0 mg/kg/injection, schedule: Q01DX009 (ip), vehicle: Klucel (hydroxypropylcellulose) (HPC).

Consider `CC1(C)N=C(N)N=C(N)N1c1cccc(C#N)c1`, for which the T/C is, setting by setting: (T/C endpoint: mean survival time, dose: 16.0 mg/kg/injection, schedule: Q01DX009 (ip), vehicle: saline) 130 % of control; (T/C endpoint: mean survival time, dose: 24.0 mg/kg/injection, schedule: Q01DX009 (ip), vehicle: saline) 136 % of control; (T/C endpoint: mean survival time, dose: 56.3 mg/kg/injection, schedule: Q01DX009 (ip), vehicle: saline) 125 % of control; (T/C endpoint: mean survival time, dose: 84.5 mg/kg/injection, schedule: Q01DX009 (ip), vehicle: saline) 127 % of control; (T/C endpoint: mean survival time, dose: 126.75 mg/kg/injection, schedule: Q01DX009 (ip), vehicle: saline) 131 % of control [5 of 6 alive]. For the same compound, the survivor count (T/C endpoint: mean survival time, dose: 126.0 mg/kg/injection, schedule: Q01DX009 (ip), vehicle: saline) is 4 of 6.

For the compound `Ic1ncnc2c1ncn2C1CCCCO1` (stereo not drawn), the survivor count (T/C endpoint: mean survival time, dose: 400.0 mg/kg/injection, schedule: Q01DX009 (ip), vehicle: saline sonified) is 3 of 6.

For `CC(C)(C)CC(=O)OCCC[N+](C)(C)C`, the survivor count (T/C endpoint: mean survival time, dose: 100.0 mg/kg/injection, schedule: Q01DX009 (ip), vehicle: water) was 2 of 6; the survivor count (T/C endpoint: mean survival time, dose: 200.0 mg/kg/injection, schedule: Q01DX009 (ip), vehicle: water) is 1 of 6; the survivor count (T/C endpoint: mean survival time, dose: 400.0 mg/kg/injection, schedule: Q01DX009 (ip), vehicle: water) is 0 of 6.

Turning to `O=C(O)c1cccc(I)c1.[Ni]`, the survivor count (T/C endpoint: mean survival time, dose: 100.0 mg/kg/injection, schedule: Q04DX002 (ip), vehicle: gum acacia) was 2 of 3; the survivor count (T/C endpoint: mean survival time, dose: 200.0 mg/kg/injection, schedule: Q04DX002 (ip), vehicle: gum acacia) is reported as 2 of 3; the survivor count (T/C endpoint: mean survival time, dose: 400.0 mg/kg/injection, schedule: Q04DX002 (ip), vehicle: gum acacia) was 0 of 3.

As to `CSc1ccccc1N=Cc1cc(Cl)ccc1O`, the survivor count was 6 of 6 (T/C endpoint: mean survival time, dose: 200.0 mg/kg/injection, schedule: Q01DX001 (ip), vehicle: saline with Tween-80) and 6 of 6 (T/C endpoint: mean survival time, dose: 400.0 mg/kg/injection, schedule: Q01DX001 (ip), vehicle: saline with Tween-80).

Regarding `NC(=S)NN=C1CCCCCCCCCCCCCC1`, the survivor count is, setting by setting: (T/C endpoint: mean survival time, dose: 50.0 mg/kg/injection, schedule: Q01DX001 (ip), vehicle: carboxymethylcellulose (CMC)) 4 of 4; under setting [1], 4 of 4; under setting [2], 4 of 4; under setting [3], 4 of 4.

Turning to `O=C1CCC2CN3CCc4c([nH]c5ccccc45)C3CC2C1` (stereo not drawn), the survivor count (T/C endpoint: mean survival time, dose: 150.0 mg/kg/injection, schedule: Q01DX001 (ip), vehicle: other) was 3 of 6 and the survivor count (T/C endpoint: mean survival time, dose: 300.0 mg/kg/injection, schedule: Q01DX001 (ip), vehicle: other) is recorded as 0 of 6.

As for `CCOC(=O)NNC(=O)c1ccccc1`, the survivor count is reported as 1 of 6 (T/C endpoint: mean survival time, dose: 75.0 mg/kg/injection, schedule: Q01DX009 (ip), vehicle: alcohol); 3 of 6 (T/C endpoint: mean survival time, dose: 100.0 mg/kg/injection, schedule: Q04DX003 (ip), vehicle: alcohol); 0 of 6 (T/C endpoint: mean survival time, dose: 115.0 mg/kg/injection, schedule: Q01DX009 (ip), vehicle: alcohol); 0 of 6 (T/C endpoint: mean survival time, dose: 170.0 mg/kg/injection, schedule: Q01DX009 (ip), vehicle: alcohol).

In the case of `Cc1cnc(/N=C(\N)N2CCOCC2)nc1-c1ccccc1O`, the survivor count under setting [4] is listed as 0 of 3.

Regarding `CNCC(=O)NC(CO)C(=O)NC1C(C(N)=O)OC(n2ccc(N)nc2=O)C(O)C1O` (stereo not drawn), the survivor count is, setting by setting: (T/C endpoint: median survival time, dose: 6.0 mg/kg/injection, schedule: Q04DX003 (ip), vehicle: saline) 3 of 8; (T/C endpoint: median survival time, dose: 12.0 mg/kg/injection, schedule: Q04DX003 (ip), vehicle: saline) 2 of 8.

With `O=c1oc2c3ccccc3c3ccccc3c2o1`, the survivor count runs as follows: under setting [5], 4 of 6; under setting [6], 2 of 6.

With `COc1cc(OC)c(OC)cc1CNC1CCCCCCC1`, the survivor count by setting is: (T/C endpoint: mean survival time, dose: 200.0 mg/kg/injection, schedule: Q04DX002 (ip), vehicle: saline) 1 of 3; (T/C endpoint: mean survival time, dose: 400.0 mg/kg/injection, schedule: Q04DX002 (ip), vehicle: saline) 0 of 3.

`Cc1c(O)cccc1N(C)C`: where the note is “T/C endpoint: mean survival time, dose: 100.0 mg/kg/injection, schedule: Q04DX003 (ip), vehicle: saline”, the survivor count was 6 of 6.

Regarding `CC(C)Cn1cnc2c(Sc3c([N+](=O)[O-])ncn3C)nc(N)nc21`, the T/C reads like this: (T/C endpoint: mean survival time, dose: 17.7 mg/kg/injection, schedule: Q01DX001 (ip), vehicle: carboxymethylcellulose (CMC)) 144 % of control; (T/C endpoint: mean survival time, dose: 50.0 mg/kg/injection, schedule: Q01DX015 (ip), vehicle: carboxymethylcellulose (CMC)) 132 % of control; (T/C endpoint: mean survival time, dose: 266.0 mg/kg/injection, schedule: Q01DX001 (ip), vehicle: carboxymethylcellulose (CMC)) 137 % of control; under setting [3], 138 % of control.

On to `CC(=O)Nc1ccc(OC(=O)Nc2cccc3ccccc23)cc1`, for which, under “T/C endpoint: mean survival time, dose: 400.0 mg/kg/injection, schedule: Q04DX003 (ip), vehicle: Klucel (hydroxypropylcellulose) (HPC)”, the survivor count is listed as 6 of 6.

`CS(=O)(=O)Oc1c(Cl)cc(S(=O)(=O)F)cc1Cl`: the survivor count under setting [6] was 4 of 6.

In the case of `C=CC(CO)N1CC1` (stereo not drawn), the survivor count is 1 of 6 and 2 of 6 under setting [1]; 0 of 6 under setting [2]; 0 of 6 under setting [3].

`CCCCSc1n[nH]c(=O)nc1SC`: the survivor count is 3 of 6 (T/C endpoint: mean survival time, dose: 200.0 mg/kg/injection, schedule: Q01DX001 (ip), vehicle: acetone) and 0 of 6 (T/C endpoint: mean survival time, dose: 400.0 mg/kg/injection, schedule: Q01DX001 (ip), vehicle: acetone).

With `Clc1ccc(Cl)c(CBr)c1Cl`, the survivor count is recorded as 3 of 6 (T/C endpoint: mean survival time, dose: 200.0 mg/kg/injection, schedule: Q04DX003 (ip), vehicle: saline with Tween-80) and 1 of 6 (T/C endpoint: mean survival time, dose: 400.0 mg/kg/injection, schedule: Q04DX003 (ip), vehicle: saline with Tween-80).

With `CCCC/C=C/CCCC`, where the note is “T/C endpoint: mean survival time, dose: 150.0 mg/kg/injection, schedule: Q01DX009 (ip), vehicle: saline”, the survivor count is 6 of 6.

For `Nc1cc[n+](-c2ccc([N+](=O)[O-])cc2[N+](=O)[O-])cc1`, the survivor count runs as follows: (T/C endpoint: mean survival time, dose: 50.0 mg/kg/injection, schedule: Q01DX009 (ip), vehicle: Klucel (hydroxypropylcellulose) (HPC)) 0 of 6; under setting [7], 0 of 6; under setting [5], 0 of 6; under setting [6], 0 of 6.

In the case of `OC/C(I)=C(I)\C(I)=C(\I)CO`, the survivor count (T/C endpoint: mean survival time, dose: 200.0 mg/kg/injection, schedule: Q04DX002 (ip), vehicle: Klucel (hydroxypropylcellulose) (HPC)) was 0 of 3 and the survivor count under setting [4] is reported as 0 of 3.

With `O=C(Nc1ccc(Br)cc1C(=O)O)c1cccc(Br)c1`, the survivor count runs as follows: (T/C endpoint: mean survival time, dose: 200.0 mg/kg/injection, schedule: Q01DX001 (ip), vehicle: other) 0 of 6; (T/C endpoint: mean survival time, dose: 400.0 mg/kg/injection, schedule: Q01DX001 (ip), vehicle: other) 0 of 6.

As to `Cc1ccc(C)c(NC(=O)c2ccc(Cl)c(Cl)c2)c1`, the survivor count was 6 of 6 (T/C endpoint: mean survival time, dose: 12.5 mg/kg/injection, schedule: Q01DX009 (ip), vehicle: Klucel (hydroxypropylcellulose) (HPC)); 6 of 6 (T/C endpoint: mean survival time, dose: 25.0 mg/kg/injection, schedule: Q01DX009 (ip), vehicle: Klucel (hydroxypropylcellulose) (HPC)); 6 of 6 under setting [7]; 6 of 6 under setting [5].

On to `CCN(CC)CCCC(C)Nc1cc(OC)cc2cccnc12` (stereo not drawn), for which the survivor count reads like this: (T/C endpoint: mean survival time, dose: 80.0 mg/kg/injection, schedule: Q01DX001 (ip), vehicle: Klucel (hydroxypropylcellulose) (HPC)) 1 of 6; (T/C endpoint: mean survival time, dose: 100.0 mg/kg/injection, schedule: Q01DX001 (ip), vehicle: Klucel (hydroxypropylcellulose) (HPC)) 0 of 6; (T/C endpoint: mean survival time, dose: 200.0 mg/kg/injection, schedule: Q01DX001 (ip), vehicle: Klucel (hydroxypropylcellulose) (HPC)) 0 of 6; (T/C endpoint: mean survival time, dose: 400.0 mg/kg/injection, schedule: Q01DX001 (ip), vehicle: Klucel (hydroxypropylcellulose) (HPC)) 0 of 6.
